Results reported in patent publication US6649763B1, “Optically active quinoline carboxylic acid derivatives with 7-pyrrolidine substituents causing optical activity and a process for the preparation thereof” (Dong Wha Pharm. Ind. Co., Ltd., priority 1999, dated 2003).

Test: Phototoxicity test
Assay type: in vivo
Details: CD-1 female mice, oral 50 mg/kg, UVA light source
Protocol: It is known that the presence of a halogen atom at the 8-position of the quinolone nuclei causes phototoxicity.
After 16 hours of starvation, CD-1 female mice were orally administered with a dose of 50 mg/kg of the compounds and allowed to be exposed for 4.5 hours to a UVA light source. The mice were located 15 cm away from the light source. Whether the mice were damaged in their ears was adopted as a main factor for the phototoxicity and determined after 24 hour and 48 hour UV exposure. The edema which the mice suffered were examined by measuring the thickness changes of their ears with the aid of electronic calipers and calculating average values. Also, an observation was made as to whether the mice suffered from erythema.

Compound: O=C(O)c1cn(C2CC2)c2cc(N3CCNCC3)c(F)cc2c1=O [Ciprofloxacin, ciprofloxacin]
- Thickness of mice's ears after UV exposure, After 48 hr: 46.0 ± 4.31
